Results on one substance are retold here after paper PMC7417771 (Frontiers in Chemistry, 2020).

The nature of this series: general procedure: Fmoc solid-phase peptide synthesis; HMPB linker on aminomethyl-polystyrene resin; HATU/DIPEA. The following applies: whole synthesis, scale 0.051 mmol.

lipobactin 3 showed an isolated mass of 15.1 mg and an isolated yield of 32.7% yield.
